# The list shows a part of the results. Only hits are listed; about a third recur on repeated control peptides.
# By UniProt entry, the sequences of proteins in these tests, tags left out.
# CFDP1, Q9UEE9, UniProt Q9UEE9, whole entry: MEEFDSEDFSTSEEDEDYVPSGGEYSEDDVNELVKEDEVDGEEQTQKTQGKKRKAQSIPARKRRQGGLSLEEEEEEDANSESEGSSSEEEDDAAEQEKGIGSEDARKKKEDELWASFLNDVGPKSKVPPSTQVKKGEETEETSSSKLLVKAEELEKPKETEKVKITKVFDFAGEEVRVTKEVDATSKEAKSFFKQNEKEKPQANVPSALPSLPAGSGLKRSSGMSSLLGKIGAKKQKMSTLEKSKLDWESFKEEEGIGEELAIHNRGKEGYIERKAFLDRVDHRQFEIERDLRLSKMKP
# EIF2S2, P20042, UniProt P20042, whole entry: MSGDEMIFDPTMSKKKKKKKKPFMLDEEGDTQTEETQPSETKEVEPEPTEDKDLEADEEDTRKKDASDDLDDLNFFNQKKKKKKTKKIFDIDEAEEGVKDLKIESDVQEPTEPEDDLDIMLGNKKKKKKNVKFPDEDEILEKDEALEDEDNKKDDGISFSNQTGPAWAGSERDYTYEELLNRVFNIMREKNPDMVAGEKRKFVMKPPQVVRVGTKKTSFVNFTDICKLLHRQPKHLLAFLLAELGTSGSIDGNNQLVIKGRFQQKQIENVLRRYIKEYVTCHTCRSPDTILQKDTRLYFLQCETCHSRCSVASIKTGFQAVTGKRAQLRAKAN
# FEN1, P39748, UniProt P39748, whole entry: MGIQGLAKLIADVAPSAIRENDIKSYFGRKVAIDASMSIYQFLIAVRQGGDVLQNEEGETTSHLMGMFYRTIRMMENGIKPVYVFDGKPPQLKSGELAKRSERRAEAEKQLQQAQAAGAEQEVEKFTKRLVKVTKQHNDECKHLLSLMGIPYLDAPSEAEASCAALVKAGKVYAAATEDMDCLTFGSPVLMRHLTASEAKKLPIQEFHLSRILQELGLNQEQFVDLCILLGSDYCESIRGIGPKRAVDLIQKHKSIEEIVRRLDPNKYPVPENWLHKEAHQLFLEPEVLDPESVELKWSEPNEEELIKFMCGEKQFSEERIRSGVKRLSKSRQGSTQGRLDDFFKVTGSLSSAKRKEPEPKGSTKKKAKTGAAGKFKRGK
# ANXA11, P50995, UniProt P50995, whole entry: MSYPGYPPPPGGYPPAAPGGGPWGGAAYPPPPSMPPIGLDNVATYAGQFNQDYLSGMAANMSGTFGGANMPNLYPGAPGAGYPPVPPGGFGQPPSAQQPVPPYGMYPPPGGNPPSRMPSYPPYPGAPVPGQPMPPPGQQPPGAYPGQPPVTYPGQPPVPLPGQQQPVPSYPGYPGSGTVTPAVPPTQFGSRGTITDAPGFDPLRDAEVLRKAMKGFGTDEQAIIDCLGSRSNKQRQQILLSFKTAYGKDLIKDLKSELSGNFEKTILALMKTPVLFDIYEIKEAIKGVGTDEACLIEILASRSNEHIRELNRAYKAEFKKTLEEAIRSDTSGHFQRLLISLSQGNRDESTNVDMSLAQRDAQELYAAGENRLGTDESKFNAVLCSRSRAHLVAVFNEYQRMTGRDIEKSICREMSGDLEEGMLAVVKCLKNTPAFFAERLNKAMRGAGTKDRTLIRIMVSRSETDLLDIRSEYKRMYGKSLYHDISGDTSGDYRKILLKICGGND
# NUP153, P49790, UniProt P49790, whole entry: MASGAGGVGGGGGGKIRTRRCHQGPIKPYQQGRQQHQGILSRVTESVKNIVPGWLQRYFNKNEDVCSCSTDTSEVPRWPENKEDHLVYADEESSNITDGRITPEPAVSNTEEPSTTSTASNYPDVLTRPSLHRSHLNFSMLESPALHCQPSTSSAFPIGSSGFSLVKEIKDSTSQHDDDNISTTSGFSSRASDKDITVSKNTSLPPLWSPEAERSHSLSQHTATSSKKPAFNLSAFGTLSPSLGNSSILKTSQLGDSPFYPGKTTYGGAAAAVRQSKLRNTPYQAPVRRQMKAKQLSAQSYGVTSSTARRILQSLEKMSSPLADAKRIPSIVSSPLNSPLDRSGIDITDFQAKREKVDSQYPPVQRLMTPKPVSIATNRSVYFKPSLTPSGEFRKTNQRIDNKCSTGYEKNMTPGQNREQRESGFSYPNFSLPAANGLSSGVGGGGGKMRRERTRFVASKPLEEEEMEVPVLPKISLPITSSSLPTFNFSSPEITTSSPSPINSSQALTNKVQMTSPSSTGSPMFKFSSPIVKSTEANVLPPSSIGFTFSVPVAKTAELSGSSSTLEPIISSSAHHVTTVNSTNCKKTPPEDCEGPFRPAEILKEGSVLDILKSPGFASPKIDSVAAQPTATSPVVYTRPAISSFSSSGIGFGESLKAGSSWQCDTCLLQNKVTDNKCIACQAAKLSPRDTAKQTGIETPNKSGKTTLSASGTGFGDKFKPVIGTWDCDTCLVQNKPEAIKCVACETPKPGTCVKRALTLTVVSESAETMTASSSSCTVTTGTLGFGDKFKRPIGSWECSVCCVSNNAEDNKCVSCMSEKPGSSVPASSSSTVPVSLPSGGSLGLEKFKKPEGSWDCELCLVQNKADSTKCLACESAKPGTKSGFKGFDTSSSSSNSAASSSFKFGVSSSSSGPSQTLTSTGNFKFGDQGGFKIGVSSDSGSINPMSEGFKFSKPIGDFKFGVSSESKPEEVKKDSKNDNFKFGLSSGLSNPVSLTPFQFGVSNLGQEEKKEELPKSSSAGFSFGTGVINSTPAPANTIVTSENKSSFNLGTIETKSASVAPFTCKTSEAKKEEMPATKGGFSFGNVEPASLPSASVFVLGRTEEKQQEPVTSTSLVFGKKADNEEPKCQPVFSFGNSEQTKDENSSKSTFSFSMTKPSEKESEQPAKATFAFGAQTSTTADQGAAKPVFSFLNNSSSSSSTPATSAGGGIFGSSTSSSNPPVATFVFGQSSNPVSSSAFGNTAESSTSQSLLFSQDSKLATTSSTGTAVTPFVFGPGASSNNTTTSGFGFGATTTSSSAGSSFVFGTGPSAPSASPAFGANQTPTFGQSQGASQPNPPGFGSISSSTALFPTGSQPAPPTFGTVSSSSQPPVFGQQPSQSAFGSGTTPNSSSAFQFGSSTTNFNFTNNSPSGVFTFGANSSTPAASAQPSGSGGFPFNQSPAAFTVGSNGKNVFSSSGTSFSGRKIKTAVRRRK
# TUBB6, Q9BUF5, UniProt Q9BUF5, whole entry: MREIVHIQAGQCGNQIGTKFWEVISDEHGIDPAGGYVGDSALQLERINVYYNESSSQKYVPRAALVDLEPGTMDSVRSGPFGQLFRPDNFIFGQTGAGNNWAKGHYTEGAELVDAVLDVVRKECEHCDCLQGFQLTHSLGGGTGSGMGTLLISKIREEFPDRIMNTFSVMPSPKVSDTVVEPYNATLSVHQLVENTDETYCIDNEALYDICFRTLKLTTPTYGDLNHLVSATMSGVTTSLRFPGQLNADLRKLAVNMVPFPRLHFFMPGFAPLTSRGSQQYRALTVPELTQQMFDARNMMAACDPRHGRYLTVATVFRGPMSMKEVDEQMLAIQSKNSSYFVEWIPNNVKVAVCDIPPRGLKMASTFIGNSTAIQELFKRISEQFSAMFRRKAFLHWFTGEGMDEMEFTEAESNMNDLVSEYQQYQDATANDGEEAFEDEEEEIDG
# CAPZB, P47756, UniProt P47756, whole entry: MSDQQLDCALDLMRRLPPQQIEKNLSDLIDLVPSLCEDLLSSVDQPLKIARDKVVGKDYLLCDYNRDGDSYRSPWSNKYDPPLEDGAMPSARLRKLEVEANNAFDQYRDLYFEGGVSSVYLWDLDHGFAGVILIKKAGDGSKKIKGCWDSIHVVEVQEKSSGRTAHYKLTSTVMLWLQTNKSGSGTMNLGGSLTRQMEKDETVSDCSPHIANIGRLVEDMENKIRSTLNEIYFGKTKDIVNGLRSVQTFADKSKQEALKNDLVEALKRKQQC
# EIF3J, O75822, UniProt O75822, whole entry: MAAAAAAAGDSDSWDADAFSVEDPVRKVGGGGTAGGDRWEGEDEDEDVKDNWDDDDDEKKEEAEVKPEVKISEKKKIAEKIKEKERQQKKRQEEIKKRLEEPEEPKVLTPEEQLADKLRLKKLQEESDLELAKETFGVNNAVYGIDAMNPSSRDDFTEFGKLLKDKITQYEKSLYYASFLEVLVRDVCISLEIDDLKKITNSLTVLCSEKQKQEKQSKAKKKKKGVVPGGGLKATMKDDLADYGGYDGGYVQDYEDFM
# INTS11, Q5TA45, UniProt Q5TA45, whole entry: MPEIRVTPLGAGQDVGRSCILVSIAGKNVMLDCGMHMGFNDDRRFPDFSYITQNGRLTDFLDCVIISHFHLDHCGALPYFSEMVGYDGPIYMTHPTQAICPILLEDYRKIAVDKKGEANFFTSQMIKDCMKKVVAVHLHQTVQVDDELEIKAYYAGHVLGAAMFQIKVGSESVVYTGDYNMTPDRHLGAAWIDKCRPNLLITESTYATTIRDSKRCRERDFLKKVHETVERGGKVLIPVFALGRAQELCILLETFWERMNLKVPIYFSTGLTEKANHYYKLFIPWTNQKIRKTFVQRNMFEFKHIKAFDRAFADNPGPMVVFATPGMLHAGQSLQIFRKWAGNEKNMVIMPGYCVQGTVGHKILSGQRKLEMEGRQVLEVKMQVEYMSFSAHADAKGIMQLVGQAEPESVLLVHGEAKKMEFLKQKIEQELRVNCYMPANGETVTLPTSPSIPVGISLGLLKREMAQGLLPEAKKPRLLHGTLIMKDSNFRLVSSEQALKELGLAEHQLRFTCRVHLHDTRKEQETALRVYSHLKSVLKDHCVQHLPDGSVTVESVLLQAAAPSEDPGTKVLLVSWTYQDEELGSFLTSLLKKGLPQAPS
# NDUFB5, O43674, UniProt O43674, whole entry: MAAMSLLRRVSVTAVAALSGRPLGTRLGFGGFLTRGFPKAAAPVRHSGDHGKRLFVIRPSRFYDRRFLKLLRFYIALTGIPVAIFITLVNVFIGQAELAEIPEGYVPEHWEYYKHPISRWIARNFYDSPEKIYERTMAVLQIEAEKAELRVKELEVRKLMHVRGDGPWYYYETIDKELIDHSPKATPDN
# RAD18, Q9NS91, UniProt Q9NS91, whole entry: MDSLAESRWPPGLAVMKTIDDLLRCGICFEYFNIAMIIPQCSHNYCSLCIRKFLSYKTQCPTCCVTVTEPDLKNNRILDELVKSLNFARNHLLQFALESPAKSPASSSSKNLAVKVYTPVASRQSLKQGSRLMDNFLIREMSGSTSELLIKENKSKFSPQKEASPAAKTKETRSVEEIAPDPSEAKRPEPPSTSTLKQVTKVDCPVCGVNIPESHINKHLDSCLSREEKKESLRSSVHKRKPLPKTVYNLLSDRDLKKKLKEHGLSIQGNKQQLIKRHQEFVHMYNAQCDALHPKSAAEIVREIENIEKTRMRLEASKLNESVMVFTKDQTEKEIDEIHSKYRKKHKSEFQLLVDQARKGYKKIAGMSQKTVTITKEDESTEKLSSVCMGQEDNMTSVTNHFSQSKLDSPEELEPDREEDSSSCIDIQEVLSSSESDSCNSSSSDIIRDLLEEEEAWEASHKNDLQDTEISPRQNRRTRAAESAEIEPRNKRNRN
# USP10, Q14694, UniProt Q14694, whole entry: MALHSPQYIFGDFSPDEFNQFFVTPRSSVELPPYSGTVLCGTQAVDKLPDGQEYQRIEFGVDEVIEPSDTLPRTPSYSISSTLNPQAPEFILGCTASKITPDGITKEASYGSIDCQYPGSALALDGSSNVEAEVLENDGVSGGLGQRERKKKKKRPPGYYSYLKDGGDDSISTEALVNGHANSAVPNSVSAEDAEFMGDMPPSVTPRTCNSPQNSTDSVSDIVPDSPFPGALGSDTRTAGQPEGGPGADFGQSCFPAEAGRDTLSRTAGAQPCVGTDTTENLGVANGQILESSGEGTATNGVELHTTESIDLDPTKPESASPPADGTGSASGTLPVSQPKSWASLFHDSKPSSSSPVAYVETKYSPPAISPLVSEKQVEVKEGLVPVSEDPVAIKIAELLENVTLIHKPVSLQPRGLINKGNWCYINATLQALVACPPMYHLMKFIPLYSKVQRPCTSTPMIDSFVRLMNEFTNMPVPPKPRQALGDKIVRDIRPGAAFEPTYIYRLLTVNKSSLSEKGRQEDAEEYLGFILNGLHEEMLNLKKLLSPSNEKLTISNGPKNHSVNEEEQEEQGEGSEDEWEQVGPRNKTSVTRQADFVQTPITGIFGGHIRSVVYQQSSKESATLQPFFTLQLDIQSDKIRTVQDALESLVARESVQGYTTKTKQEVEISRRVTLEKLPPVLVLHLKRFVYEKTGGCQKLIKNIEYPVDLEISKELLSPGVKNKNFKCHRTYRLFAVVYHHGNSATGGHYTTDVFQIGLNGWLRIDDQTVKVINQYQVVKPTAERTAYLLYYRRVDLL
# VPS4B, O75351, UniProt O75351, whole entry: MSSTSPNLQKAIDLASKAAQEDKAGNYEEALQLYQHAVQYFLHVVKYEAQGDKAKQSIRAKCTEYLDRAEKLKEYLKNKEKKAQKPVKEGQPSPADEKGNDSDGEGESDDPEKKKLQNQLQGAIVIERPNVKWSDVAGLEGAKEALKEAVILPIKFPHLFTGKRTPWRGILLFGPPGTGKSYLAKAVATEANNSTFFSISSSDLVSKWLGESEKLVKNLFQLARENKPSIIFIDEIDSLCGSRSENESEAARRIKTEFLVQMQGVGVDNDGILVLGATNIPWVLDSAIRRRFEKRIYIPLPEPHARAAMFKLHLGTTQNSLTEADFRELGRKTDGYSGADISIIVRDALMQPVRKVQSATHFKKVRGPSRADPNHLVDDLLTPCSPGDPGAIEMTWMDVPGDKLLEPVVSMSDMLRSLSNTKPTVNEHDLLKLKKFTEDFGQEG
# Assays:
# Assay in all cases: PRISMA enrichment of interactor (LFQ) in peptide spot vs all other peptide spots (log2 fold change); higher = stronger / more specific binding of the interactor to the peptide
# AGFG1, P52594 = molecular target: AGFG1, P52594
# Procedure: (§1)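 PRISMA: 15-aa overlapping tiles (offset 8 aa) of 60 microproteins, plus SOS1/GLUT1 control peptides, were spot-synthesized on cellulose membranes in triplicate. Membranes were incubated with benzonase-treated HEK293T lysate, and bound proteins were identified by LC-MS/MS with LFQ. Enrichment is the log2 fold change of each protein in one spot versus all other spots. Only interactors passing the significance cutoff are listed.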
# ANP32A, P39687 = molecular target: ANP32A, P39687
# Procedure: as §1
# ANP32B, Q92688 = molecular target: ANP32B, Q92688
# Procedure: as §1
# ARL2, P36404 = molecular target: ARL2, P36404
# Procedure: as §1
# CFDP1, Q9UEE9 = molecular target: CFDP1, Q9UEE9
# Procedure: as §1
# DUSP3, P51452 = molecular target: DUSP3, P51452
# Procedure: as §1
# ECD, O95905 = molecular target: ECD, O95905
# Procedure: as §1
# EIF2S2, P20042 = molecular target: EIF2S2, P20042
# Procedure: as §1
# FEN1, P39748 = molecular target: FEN1, P39748
# Procedure: as §1
# LRRFIP1, Q32MZ4 = molecular target: LRRFIP1, Q32MZ4
# Procedure: as §1
# NUCKS1, Q9H1E3 = molecular target: NUCKS1, Q9H1E3
# Procedure: as §1
# RO60, P10155 = molecular target: RO60, P10155
# Procedure: as §1
# SYAP1, Q96A49 = molecular target: SYAP1, Q96A49
# Procedure: as §1
# USP24, Q9UPU5 = molecular target: USP24, Q9UPU5
# Procedure: as §1
# VPS25, Q9BRG1 = molecular target: VPS25, Q9BRG1
# Procedure: as §1
# AFG3L2, Q9Y4W6 = molecular target: AFG3L2, Q9Y4W6
# Procedure: as §1
# AKAP1, Q92667 = molecular target: AKAP1, Q92667
# Procedure: as §1
# ANXA11, P50995 = molecular target: ANXA11, P50995
# Procedure: as §1
# CLINT1, Q14677 = molecular target: CLINT1, Q14677
# Procedure: as §1
# EEF1D, P29692 = molecular target: EEF1D, P29692
# Procedure: as §1
# EIF2B2, P49770 = molecular target: EIF2B2, P49770
# Procedure: as §1
# FLNA, P21333 = molecular target: FLNA, P21333
# Procedure: as §1
# MON2, Q7Z3U7 = molecular target: MON2, Q7Z3U7
# Procedure: as §1
# MRPS22, P82650 = molecular target: MRPS22, P82650
# Procedure: as §1
# MRPS28, Q9Y2Q9 = molecular target: MRPS28, Q9Y2Q9
# Procedure: as §1
# NAP1L1, P55209 = molecular target: NAP1L1, P55209
# Procedure: as §1
# NUP153, P49790 = molecular target: NUP153, P49790
# Procedure: as §1
# PDAP1, Q13442 = molecular target: PDAP1, Q13442
# Procedure: as §1
# PRKCSH, P14314 = molecular target: PRKCSH, P14314
# Procedure: as §1
# PYCR3, Q53H96 = molecular target: PYCR3, Q53H96
# Procedure: as §1
# RBM8A, Q9Y5S9 = molecular target: RBM8A, Q9Y5S9
# Procedure: as §1
# SNRNP40, Q96DI7 = molecular target: SNRNP40, Q96DI7
# Procedure: as §1
# TBCD, Q9BTW9 = molecular target: TBCD, Q9BTW9
# Procedure: as §1
# TUBB6, Q9BUF5 = molecular target: TUBB6, Q9BUF5
# Procedure: as §1
# C1QBP, Q07021 = molecular target: C1QBP, Q07021
# Procedure: as §1
# CAPZB, P47756 = molecular target: CAPZB, P47756
# Procedure: as §1
# CKAP2L, Q8IYA6 = molecular target: CKAP2L, Q8IYA6
# Procedure: as §1
# DDX28, Q9NUL7 = molecular target: DDX28, Q9NUL7
# Procedure: as §1
# DPM3, Q9P2X0 = molecular target: DPM3, Q9P2X0
# Procedure: as §1
# EIF3J, O75822 = molecular target: EIF3J, O75822
# Procedure: as §1
# FASTKD5, Q7L8L6 = molecular target: FASTKD5, Q7L8L6
# Procedure: as §1
# INTS11, Q5TA45 = molecular target: INTS11, Q5TA45
# Procedure: as §1
# NDUFB5, O43674 = molecular target: NDUFB5, O43674
# Procedure: as §1
# NSFL1C, Q9UNZ2 = molecular target: NSFL1C, Q9UNZ2
# Procedure: as §1
# NTMT1, Q9BV86 = molecular target: NTMT1, Q9BV86
# Procedure: as §1
# RAD18, Q9NS91 = molecular target: RAD18, Q9NS91
# Procedure: as §1
# RAE1, P78406 = molecular target: RAE1, P78406
# Procedure: as §1
# SH3BGRL3, Q9H299 = molecular target: SH3BGRL3, Q9H299
# Procedure: as §1
# STMN1, P16949 = molecular target: STMN1, P16949
# Procedure: as §1
# TXLNG, Q9NUQ3 = molecular target: TXLNG, Q9NUQ3
# Procedure: as §1
# TXNDC5, Q8NBS9 = molecular target: TXNDC5, Q8NBS9
# Procedure: as §1
# USP10, Q14694 = molecular target: USP10, Q14694
# Procedure: as §1
# VPS4B, O75351 = molecular target: VPS4B, O75351
# Procedure: as §1
# XRN1, Q8IZH2 = molecular target: XRN1, Q8IZH2
# Procedure: as §1
# ZNF687, Q8N1G0 = molecular target: ZNF687, Q8N1G0
# Procedure: as §1
binder,measurement,setting,value
LSRPPHRRTSKKCSS [IFRD1],PRISMA enrichment of interactor (log2),"AGFG1, P52594",6.38
same,PRISMA enrichment of interactor (log2),"ANP32A, P39687",5.61
same,PRISMA enrichment of interactor (log2),"ANP32B, Q92688",6.06
same,PRISMA enrichment of interactor (log2),"ARL2, P36404",5.15
same,PRISMA enrichment of interactor (log2),"CFDP1, Q9UEE9",4.87
same,PRISMA enrichment of interactor (log2),"DUSP3, P51452",5.05
same,PRISMA enrichment of interactor (log2),"ECD, O95905",5.06
same,PRISMA enrichment of interactor (log2),"EIF2S2, P20042",8.86
same,PRISMA enrichment of interactor (log2),"FEN1, P39748",4.79
same,PRISMA enrichment of interactor (log2),"LRRFIP1, Q32MZ4",4.78
same,PRISMA enrichment of interactor (log2),"NUCKS1, Q9H1E3",9.22
same,PRISMA enrichment of interactor (log2),"RO60, P10155",6.29
same,PRISMA enrichment of interactor (log2),"SYAP1, Q96A49",4.22
same,PRISMA enrichment of interactor (log2),"USP24, Q9UPU5",4.23
same,PRISMA enrichment of interactor (log2),"VPS25, Q9BRG1",4.7
AGLEAWRHPSGPART [TUG1],PRISMA enrichment of interactor (log2),"AFG3L2, Q9Y4W6",6
same,PRISMA enrichment of interactor (log2),"AKAP1, Q92667",5.28
same,PRISMA enrichment of interactor (log2),"ANXA11, P50995",3.91
same,PRISMA enrichment of interactor (log2),"CLINT1, Q14677",4.65
same,PRISMA enrichment of interactor (log2),"EEF1D, P29692",4.4
same,PRISMA enrichment of interactor (log2),"EIF2B2, P49770",6.47
same,PRISMA enrichment of interactor (log2),"FLNA, P21333",6.22
same,PRISMA enrichment of interactor (log2),"MON2, Q7Z3U7",5.46
same,PRISMA enrichment of interactor (log2),"MRPS22, P82650",4.96
same,PRISMA enrichment of interactor (log2),"MRPS28, Q9Y2Q9",6.14
same,PRISMA enrichment of interactor (log2),"NAP1L1, P55209",6.08
same,PRISMA enrichment of interactor (log2),"NUP153, P49790",5.97
same,PRISMA enrichment of interactor (log2),"PDAP1, Q13442",4.87
same,PRISMA enrichment of interactor (log2),"PRKCSH, P14314",4.94
same,PRISMA enrichment of interactor (log2),"PYCR3, Q53H96",5.65
same,PRISMA enrichment of interactor (log2),"RBM8A, Q9Y5S9",5.41
same,PRISMA enrichment of interactor (log2),"SNRNP40, Q96DI7",5.63
same,PRISMA enrichment of interactor (log2),"TBCD, Q9BTW9",6.03
same,PRISMA enrichment of interactor (log2),"TUBB6, Q9BUF5",5.24
PRRARSAPTAVAAEA [RNF10],PRISMA enrichment of interactor (log2),"AGFG1, P52594",5.37
same,PRISMA enrichment of interactor (log2),"ANP32A, P39687",5.85
same,PRISMA enrichment of interactor (log2),"C1QBP, Q07021",7.05
same,PRISMA enrichment of interactor (log2),"CAPZB, P47756",6.58
same,PRISMA enrichment of interactor (log2),"CKAP2L, Q8IYA6",6.19
same,PRISMA enrichment of interactor (log2),"DDX28, Q9NUL7",5.2
same,PRISMA enrichment of interactor (log2),"DPM3, Q9P2X0",4.99
same,PRISMA enrichment of interactor (log2),"EIF3J, O75822",4.91
same,PRISMA enrichment of interactor (log2),"FASTKD5, Q7L8L6",7.68
same,PRISMA enrichment of interactor (log2),"INTS11, Q5TA45",5.24
same,PRISMA enrichment of interactor (log2),"NDUFB5, O43674",4.2
same,PRISMA enrichment of interactor (log2),"NSFL1C, Q9UNZ2",4.91
same,PRISMA enrichment of interactor (log2),"NTMT1, Q9BV86",4.76
same,PRISMA enrichment of interactor (log2),"RAD18, Q9NS91",4.69
same,PRISMA enrichment of interactor (log2),"RAE1, P78406",5.74
same,PRISMA enrichment of interactor (log2),"SH3BGRL3, Q9H299",3.78
same,PRISMA enrichment of interactor (log2),"STMN1, P16949",8.2
same,PRISMA enrichment of interactor (log2),"TXLNG, Q9NUQ3",5.21
same,PRISMA enrichment of interactor (log2),"TXNDC5, Q8NBS9",4.7
same,PRISMA enrichment of interactor (log2),"USP10, Q14694",4.85
same,PRISMA enrichment of interactor (log2),"VPS4B, O75351",4.29
same,PRISMA enrichment of interactor (log2),"XRN1, Q8IZH2",5.02
same,PRISMA enrichment of interactor (log2),"ZNF687, Q8N1G0",4.59

# Quoted at random: 2 records from the list.
binder,measurement,setting,value
LSRPPHRRTSKKCSS [IFRD1],PRISMA enrichment of interactor (log2),"CFDP1, Q9UEE9",4.87
same,PRISMA enrichment of interactor (log2),"DUSP3, P51452",5.05

# Source: the supplement of paper PMC10032668
